From patent publication US20170267986A1, “GENERATION OF MANNOSE-6-PHOSPHATE CONTAINING RECOMBINANT ALPHA-N-ACETYL GLUCOSAMINIDASE” (SHIRE HUMAN GENETIC THERAPIES, INC., priority 2014, published 2017)

Tests used:
[1] = Analysis of glycan structure by HI-UHPLC of 2-AB labeled N-glycans with exoglycosidase array; settings: share of glycan peak areas
[2] = Mannose-6-phosphate monosaccharide quantitation by PAD-HPLC after sGNPT modification

B1: rhNaglu: recombinant human alpha-N-acetyl-glucosaminidase purified from human fibrosarcoma HT1080 cells engineered to over-express it (protein)
chain: DEAREAAAVRALVARLLGPGPAADFSVSVERALAAKPGLDTYSLGGGGAARVRVRGSTGVAAAAGLHRYLRDFCGCHVAWSGSQLRLPRPLPAVPGELTEATPNRYRYYQNVCTQSYSFVWWDWARWEREIDWMALNGINLALAWSGQEAIWQRVYLALGLTQAEINEFFTGPAFLAWGRMGNLHTWDGPLPPSWHIKQLYLQHRVLDQMRSFGMTPVLPAFAGHVPEAVTRVFPQVNVTKMGSWGHFNCSYSCSFLLAPEDPIFPIIGSLFLRELIKEFGTDHIYGADTFNEMQPPSSEPSYLAAATTAVYEAMTAVDTEAVWLLQGWLFQHQPQFWGPAQIRAVLGAVPRGRLLVLDLFAESQPVYTRTASFQGQPFIWCMLHNFGGNHGLFGALEAVNGGPEAARLFPNSTMVGTGMAPEGISQNEVVYSLMAELGWRKDPVPDLAAWVTSFAARRYGVSHPDAGAAWRLLLRSVYNCSGEACRGHNRSPLVRRPSLQMNTSIWYNRSDVFEAWRLLLTSAPSLATSPAFRYDLLDLTRQAVQELVSLYYEEARSAYLSKELASLLRAGGVLAYELLPALDEVLASDSRFLLGSWLEQARAAAVSEAEADFYEQNSRYQLTLWGPEGNILDYANKQLAGLVANYYTPRWRLFLEALVDSVAQGIPFQQHQFDKNVFQLEQAFVLSKQRYPSQPRGDTVDLAKKIFLKYYPRWVAGSW
- relative abundance of bi-antennary glycans (A2) [1]: 33%
- relative abundance of high-mannose glycans (A0) [1]: 0%
- relative abundance of tetra-antennary glycans (A4) [1]: 45%

B2: rhArylsulfatase A: another recombinant lysosomal enzyme produced in the same cell type as rhNaglu (protein, UniProt P15289 19-507, looked up)
Arylsulfatase A: RPPNIVLIFADDLGYGDLGCYGHPSSTTPNLDQLAAGGLRFTDFYVPVSLCTPSRAALLTGRLPVRMGMYPGVLVPSSRGGLPLEEVTVAEVLAARGYLTGMAGKWHLGVGPEGAFLPPHQGFHRFLGIPYSHDQGPCQNLTCFPPATPCDGGCDQGLVPIPLLANLSVEAQPPWLPGLEARYMAFAHDLMADAQRQDRPFFLYYASHHTHYPQFSGQSFAERSGRGPFGDSLMELDAAVGTLMTAIGDLGLLEETLVIFTADNGPETMRMSRGGCSGLLRCGKGTTYEGGVREPALAFWPGHIAPGVTHELASSLDLLPTLAALAGAPLPNVTLDGFDLSPLLLGTGKSPRQSLFFYPSYPDEVRGVFAVRTGKYKAHFFTQGSAHSDTTADPACHASSSLTAHEPPLLYDLSKDPGENYNLLGGVAGATPEVLQALKQLQLLKAQLDAAVTFGPSQVARGEDPALQICCHPGCTPRPACCHCPDPHA
- relative abundance of high-mannose glycans (A0) [1]: 40%

B3: Naglu-Kif: high-mannose-containing recombinant human Naglu purified from HT1080 cells grown with 2 mg/l Kifunensine; tested after sGNPT modification (protein)
chain: B1 chain
- molar ratio pmol M6P/pmol Naglu Kif ([2]; +35 ug GNPT, 50 mM Sodium Acetate pH 6.5, 20 mM MnCl2): below the detection threshold
- molar ratio pmol M6P/pmol Naglu Kif ([2]; +70 ug GNPT, 50 mM Sodium Acetate pH 6.5, 20 mM MnCl2): 0.12 pmol M6P/pmol Naglu Kif
- molar ratio pmol M6P/pmol Naglu Kif ([2]; +70 ug GNPT, 50 mM Tris pH 7.4, 10 mM MnC2, 10 mm MgCl2): 1.45 pmol M6P/pmol Naglu Kif
- molar ratio pmol M6P/pmol Naglu Kif ([2]; +140 ug GNPT, 50 mM Sodium Acetate pH 6.5, 20 mM MnCl2): 0.64 pmol M6P/pmol Naglu Kif
